The text below walks through data of article PMC9150345.

By UniProt entry, the sequences of proteins in these tests, tags left out.
UniProt P02833: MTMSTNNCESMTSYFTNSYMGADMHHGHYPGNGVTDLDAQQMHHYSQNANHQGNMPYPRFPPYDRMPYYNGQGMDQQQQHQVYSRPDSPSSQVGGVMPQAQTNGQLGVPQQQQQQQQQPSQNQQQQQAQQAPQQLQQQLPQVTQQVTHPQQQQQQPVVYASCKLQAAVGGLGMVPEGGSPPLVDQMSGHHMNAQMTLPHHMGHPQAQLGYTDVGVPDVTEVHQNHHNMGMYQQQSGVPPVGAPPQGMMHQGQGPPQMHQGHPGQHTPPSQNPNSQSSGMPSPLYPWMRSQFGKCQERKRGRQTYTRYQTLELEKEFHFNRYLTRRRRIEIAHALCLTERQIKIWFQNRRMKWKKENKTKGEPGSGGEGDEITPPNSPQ

Results are given in words; binding and its absence hold for the method and conditions named. In cells and extracts the contact can be indirect. Some binding calls cover weakened binding; strength is not graded here. Tags and fused reporters may be left off the sequences shown.

The target in this assay is T1, Drosophila melanogaster TBP (dmTBP), BiFC fusion (Drosophila melanogaster) (UniProt P20227).
T1 sequence: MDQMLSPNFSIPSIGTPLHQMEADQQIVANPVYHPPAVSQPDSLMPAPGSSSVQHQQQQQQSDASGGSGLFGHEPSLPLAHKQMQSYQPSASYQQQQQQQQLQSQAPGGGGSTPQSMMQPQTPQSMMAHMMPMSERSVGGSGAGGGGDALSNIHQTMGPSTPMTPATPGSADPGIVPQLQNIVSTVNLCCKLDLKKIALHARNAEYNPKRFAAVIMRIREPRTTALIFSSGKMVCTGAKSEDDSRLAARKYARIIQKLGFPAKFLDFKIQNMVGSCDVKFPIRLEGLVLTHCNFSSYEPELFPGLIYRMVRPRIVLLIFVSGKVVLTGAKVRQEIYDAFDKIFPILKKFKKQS
Description: split reporter; preliminary results of BiFC assays with Drosophila melanogaster TBP (data not shown).

For “Antennapedia (Antp), fused to the C-terminal fragment of Venus (from UniProt P02833 1-378)”, the binding result is “binds”.
